Among the data in paper doi:10.1101/2025.04.12.648552 are binding values, retold here.

By UniProt entry, the sequences of proteins in these tests, tags left out.
UniProt Q07243: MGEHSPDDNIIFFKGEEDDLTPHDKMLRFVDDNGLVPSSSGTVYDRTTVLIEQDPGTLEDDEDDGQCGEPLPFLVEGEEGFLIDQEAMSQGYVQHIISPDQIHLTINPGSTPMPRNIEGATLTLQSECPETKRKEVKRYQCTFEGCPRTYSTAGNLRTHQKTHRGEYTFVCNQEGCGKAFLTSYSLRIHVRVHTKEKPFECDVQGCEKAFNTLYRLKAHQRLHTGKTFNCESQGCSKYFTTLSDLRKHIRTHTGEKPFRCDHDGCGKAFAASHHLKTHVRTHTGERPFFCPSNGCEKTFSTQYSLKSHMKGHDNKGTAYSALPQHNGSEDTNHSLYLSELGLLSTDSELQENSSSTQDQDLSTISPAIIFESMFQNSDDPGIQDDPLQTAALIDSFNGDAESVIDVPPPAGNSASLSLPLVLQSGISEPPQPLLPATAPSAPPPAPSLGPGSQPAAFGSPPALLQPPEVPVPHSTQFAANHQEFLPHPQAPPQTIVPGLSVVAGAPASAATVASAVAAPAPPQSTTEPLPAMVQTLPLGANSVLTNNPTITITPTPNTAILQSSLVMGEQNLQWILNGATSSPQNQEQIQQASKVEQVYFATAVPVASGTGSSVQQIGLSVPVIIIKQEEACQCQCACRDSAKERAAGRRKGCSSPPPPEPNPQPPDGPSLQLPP
UniProt Q3TKT4: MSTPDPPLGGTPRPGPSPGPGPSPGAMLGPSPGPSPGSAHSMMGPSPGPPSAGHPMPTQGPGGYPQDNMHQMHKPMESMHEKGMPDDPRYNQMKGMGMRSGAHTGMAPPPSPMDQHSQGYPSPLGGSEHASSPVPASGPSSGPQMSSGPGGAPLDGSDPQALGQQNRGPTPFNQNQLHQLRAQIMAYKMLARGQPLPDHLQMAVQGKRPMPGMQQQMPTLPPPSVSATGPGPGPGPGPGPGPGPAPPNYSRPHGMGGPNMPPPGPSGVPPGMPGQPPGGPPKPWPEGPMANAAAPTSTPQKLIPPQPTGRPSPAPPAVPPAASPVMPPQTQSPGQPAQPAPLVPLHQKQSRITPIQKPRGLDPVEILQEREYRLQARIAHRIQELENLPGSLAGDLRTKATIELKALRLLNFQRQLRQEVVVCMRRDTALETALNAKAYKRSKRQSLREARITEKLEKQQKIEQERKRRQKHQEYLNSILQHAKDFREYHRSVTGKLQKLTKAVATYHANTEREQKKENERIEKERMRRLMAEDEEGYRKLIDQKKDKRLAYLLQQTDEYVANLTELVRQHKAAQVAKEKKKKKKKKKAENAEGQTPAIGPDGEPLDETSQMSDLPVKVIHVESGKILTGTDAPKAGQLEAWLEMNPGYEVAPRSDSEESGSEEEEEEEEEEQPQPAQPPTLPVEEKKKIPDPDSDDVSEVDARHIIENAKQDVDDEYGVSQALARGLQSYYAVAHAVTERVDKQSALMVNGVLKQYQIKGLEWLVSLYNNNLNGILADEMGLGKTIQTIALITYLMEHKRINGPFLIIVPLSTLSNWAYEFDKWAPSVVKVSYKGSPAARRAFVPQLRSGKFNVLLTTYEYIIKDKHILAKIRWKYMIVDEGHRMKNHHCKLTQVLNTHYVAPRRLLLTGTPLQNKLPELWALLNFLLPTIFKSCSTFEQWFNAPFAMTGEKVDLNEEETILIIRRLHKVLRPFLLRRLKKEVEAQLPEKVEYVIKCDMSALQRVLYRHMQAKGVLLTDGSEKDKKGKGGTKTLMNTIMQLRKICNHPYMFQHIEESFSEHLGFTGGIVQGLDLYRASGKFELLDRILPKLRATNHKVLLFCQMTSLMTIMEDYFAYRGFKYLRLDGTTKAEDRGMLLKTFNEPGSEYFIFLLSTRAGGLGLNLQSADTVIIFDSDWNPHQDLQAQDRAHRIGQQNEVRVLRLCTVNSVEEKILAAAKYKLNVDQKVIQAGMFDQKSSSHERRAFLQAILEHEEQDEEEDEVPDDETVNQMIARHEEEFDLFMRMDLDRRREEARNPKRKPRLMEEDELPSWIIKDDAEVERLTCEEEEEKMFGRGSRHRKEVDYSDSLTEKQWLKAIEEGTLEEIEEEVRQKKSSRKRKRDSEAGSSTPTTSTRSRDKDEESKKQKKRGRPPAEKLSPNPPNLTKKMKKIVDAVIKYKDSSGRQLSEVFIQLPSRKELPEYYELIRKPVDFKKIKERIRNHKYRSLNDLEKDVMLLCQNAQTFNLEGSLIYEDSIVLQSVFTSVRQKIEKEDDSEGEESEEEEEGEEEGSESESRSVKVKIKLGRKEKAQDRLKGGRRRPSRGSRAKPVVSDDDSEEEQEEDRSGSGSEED
UniProt Q8BSQ9: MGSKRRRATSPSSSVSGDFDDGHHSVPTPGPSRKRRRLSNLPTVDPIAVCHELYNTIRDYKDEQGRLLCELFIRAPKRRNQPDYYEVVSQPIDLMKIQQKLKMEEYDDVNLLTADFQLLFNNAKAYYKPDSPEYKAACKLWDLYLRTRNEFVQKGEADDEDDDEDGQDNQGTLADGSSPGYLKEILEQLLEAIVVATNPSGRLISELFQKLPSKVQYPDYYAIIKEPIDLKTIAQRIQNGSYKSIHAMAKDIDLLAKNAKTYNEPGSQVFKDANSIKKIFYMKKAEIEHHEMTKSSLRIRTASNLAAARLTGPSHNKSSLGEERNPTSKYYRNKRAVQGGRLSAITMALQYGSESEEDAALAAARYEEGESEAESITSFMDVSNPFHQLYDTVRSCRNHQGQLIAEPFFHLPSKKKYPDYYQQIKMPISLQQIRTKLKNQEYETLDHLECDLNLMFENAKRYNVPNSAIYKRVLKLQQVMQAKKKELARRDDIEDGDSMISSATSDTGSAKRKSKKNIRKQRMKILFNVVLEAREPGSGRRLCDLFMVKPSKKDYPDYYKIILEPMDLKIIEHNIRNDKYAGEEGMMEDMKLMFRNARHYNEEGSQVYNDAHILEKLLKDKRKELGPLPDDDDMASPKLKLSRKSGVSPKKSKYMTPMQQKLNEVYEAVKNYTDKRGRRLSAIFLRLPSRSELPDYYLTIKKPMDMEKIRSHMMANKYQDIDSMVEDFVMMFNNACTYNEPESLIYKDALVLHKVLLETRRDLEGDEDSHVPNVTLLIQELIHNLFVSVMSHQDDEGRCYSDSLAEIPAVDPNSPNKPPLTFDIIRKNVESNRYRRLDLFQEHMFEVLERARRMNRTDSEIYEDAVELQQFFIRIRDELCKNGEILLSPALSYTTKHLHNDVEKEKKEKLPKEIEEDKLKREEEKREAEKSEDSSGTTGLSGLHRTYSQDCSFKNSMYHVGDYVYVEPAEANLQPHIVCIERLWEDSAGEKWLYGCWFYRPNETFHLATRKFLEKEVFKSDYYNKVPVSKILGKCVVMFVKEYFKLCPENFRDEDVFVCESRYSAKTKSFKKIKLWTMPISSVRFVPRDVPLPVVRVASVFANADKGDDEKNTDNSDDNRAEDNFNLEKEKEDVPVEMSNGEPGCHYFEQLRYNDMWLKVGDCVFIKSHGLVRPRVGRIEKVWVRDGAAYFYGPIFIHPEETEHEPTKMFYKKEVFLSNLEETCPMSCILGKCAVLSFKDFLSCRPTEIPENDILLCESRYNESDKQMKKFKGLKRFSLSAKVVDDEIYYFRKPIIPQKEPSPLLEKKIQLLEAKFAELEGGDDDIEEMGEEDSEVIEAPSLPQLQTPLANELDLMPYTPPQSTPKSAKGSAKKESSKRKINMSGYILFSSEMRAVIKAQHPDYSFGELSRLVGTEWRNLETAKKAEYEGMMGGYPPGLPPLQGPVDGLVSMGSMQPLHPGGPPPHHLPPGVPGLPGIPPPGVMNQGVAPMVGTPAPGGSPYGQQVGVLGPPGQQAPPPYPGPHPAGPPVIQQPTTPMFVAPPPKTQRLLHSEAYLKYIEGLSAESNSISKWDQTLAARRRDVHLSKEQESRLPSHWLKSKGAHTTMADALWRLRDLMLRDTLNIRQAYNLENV
UniProt A2BH40: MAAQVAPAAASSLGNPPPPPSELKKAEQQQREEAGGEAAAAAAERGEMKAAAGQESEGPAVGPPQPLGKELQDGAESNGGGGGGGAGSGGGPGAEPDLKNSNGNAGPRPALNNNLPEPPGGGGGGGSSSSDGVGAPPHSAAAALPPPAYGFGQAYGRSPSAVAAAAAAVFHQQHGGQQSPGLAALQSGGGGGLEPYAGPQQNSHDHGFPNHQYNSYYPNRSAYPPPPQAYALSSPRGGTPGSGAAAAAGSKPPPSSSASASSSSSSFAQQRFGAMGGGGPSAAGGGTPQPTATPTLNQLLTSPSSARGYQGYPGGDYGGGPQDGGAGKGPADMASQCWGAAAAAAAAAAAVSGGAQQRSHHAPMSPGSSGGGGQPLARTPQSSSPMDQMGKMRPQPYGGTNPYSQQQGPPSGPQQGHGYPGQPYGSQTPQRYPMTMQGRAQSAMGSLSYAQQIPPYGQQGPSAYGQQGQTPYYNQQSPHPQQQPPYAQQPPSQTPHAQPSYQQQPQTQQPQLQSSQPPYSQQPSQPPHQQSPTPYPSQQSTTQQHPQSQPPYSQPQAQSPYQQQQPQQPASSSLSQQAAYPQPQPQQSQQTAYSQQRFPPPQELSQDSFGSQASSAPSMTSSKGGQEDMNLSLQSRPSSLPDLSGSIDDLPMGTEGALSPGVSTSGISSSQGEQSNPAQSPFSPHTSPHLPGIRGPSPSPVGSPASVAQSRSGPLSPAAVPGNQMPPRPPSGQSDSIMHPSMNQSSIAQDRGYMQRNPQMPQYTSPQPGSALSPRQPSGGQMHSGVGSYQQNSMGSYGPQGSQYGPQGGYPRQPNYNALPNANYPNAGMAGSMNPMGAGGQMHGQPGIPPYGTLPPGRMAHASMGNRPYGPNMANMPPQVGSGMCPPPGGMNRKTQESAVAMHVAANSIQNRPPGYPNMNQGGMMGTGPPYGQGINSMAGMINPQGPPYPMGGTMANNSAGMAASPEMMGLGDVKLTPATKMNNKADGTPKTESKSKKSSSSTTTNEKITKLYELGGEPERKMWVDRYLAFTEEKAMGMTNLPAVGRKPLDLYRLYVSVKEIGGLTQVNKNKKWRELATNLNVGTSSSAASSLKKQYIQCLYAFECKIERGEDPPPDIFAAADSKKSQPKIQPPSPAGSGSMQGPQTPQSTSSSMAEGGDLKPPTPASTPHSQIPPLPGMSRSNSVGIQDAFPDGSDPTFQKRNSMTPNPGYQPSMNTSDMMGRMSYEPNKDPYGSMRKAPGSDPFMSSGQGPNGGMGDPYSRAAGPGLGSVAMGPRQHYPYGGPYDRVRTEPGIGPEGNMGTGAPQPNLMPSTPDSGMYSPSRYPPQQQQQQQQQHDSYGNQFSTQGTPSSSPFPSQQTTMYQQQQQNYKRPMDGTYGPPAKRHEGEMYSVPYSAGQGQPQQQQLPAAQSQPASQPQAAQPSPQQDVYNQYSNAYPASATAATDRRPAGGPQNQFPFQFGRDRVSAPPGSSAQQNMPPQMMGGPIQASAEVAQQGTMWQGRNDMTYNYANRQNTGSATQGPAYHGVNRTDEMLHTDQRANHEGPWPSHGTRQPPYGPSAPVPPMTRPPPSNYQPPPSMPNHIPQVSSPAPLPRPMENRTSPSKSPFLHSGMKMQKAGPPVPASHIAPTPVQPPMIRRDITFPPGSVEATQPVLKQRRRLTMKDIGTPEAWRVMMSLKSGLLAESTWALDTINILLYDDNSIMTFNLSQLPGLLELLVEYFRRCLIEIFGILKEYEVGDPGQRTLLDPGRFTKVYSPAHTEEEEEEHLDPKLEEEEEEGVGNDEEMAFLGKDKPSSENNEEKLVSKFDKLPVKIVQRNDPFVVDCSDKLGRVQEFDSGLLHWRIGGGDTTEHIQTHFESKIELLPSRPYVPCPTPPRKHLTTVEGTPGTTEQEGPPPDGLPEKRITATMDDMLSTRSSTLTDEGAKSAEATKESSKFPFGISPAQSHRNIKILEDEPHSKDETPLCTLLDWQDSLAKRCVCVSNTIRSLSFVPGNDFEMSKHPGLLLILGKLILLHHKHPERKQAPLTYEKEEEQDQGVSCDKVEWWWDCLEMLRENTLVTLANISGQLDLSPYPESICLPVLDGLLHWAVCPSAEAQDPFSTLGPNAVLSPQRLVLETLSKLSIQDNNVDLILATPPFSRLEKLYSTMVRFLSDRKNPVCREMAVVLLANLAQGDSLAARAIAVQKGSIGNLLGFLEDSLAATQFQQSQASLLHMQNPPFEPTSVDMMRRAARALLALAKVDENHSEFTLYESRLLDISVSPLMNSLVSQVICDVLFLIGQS

No constants are given. Whether binding was seen depends on the method and setting. In cells and extracts the contact can be indirect. These calls come from enrichment with a bait or labelling near it, and not all partners need be listed.

In this assay the target is Mtf1 (metal-responsive transcription factor) (mouse (endogenous in C2C12)) (UniProt Q07243). The experiment in a line: affinity purification with mass spectrometry.
For “Brahma-related gene 1 (Brg1) (from UniProt Q3TKT4 1-1613)”, the binding entry is recorded as “binds”. Consider “Baf180 (PBAF-specific SWI/SNF subunit) (from UniProt Q8BSQ9 1-1634)”, for which the binding result is listed as “binds”. The result for “Baf250a (BAF-specific SWI/SNF subunit) (from UniProt A2BH40 1-2283)” reads “binds”.
